Primary screen of a compound library

Mtb growth Cornell: 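Whole-cell assay for inhibitors of Mycobacterium tuberculosis growth, labelled Cornell in the record; the read-out is not stated. The concentration is filed as 10 mM, unlikely as a test dose, so the dose is not known. The record gives no direction; compounds strong in two other growth screens of this library score well above the rest, so higher reads as stronger inhibition. Of about 53,000 compounds tested this way, about 900 (1.7%) reached 50% or more in at least one test.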
Mtb heat-shock: 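Assay on Mycobacterium tuberculosis, filed only as a heat shock assay from Cornell; the read-out is not stated. The concentration is filed as 10 mM, unlikely as a test dose, so the dose is not known. Higher reads as stronger inhibition (inferred: compounds with an IC50 in retests scored well above the rest). About 69,000 compounds were tested under these conditions; 1.4% (about 930) showed 50% or more at least once.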

The filed quantity is “Percent Effect” (%).
The controls that fix the scale are not given in the record; negative values are as filed.
The compounds are a random part of those screened.

* CN1CCC(N(C)C(=O)c2cnc3c(cnn3C3CCCC3)c2)CC1 | Mtb growth Cornell: 15.63%; Mtb heat-shock: -14.04%
* CCC(=O)N1CCC2(C=C(C(=O)N3CCCC3)c3ccccc32)CC1 | Mtb growth Cornell: -17.56%; Mtb heat-shock: -25.01%
* Cc1nnc(N2CCCC(CS(N)(=O)=O)C2)c(C#N)c1C (stereo not drawn) | Mtb growth Cornell: -3.397%; Mtb heat-shock: 1.993%
* Cc1ccc2c(c1)C1(CC2)CCN(c2nncs2)CC1 | Mtb growth Cornell: 43.95%; Mtb heat-shock: -9.617%
* Cc1ccc(CC2COCCN(S(C)(=O)=O)C2)nc1 (stereo not drawn) | Mtb growth Cornell: -24.05%; Mtb heat-shock: -20.19%
* Cc1ccc(-n2nc3n(c2=O)CCN(C(=O)c2ccc(Cl)cc2)C3)cc1 | Mtb heat-shock: 6.565%
* CCCc1nc(C)cc(N2CCC3(CCC(=O)N(CCOC)C3)CC2)n1 | Mtb growth Cornell: 23.25%; Mtb heat-shock: -1.108%
* CCC(Nc1nc(C(C)C)nc2c1cnn2C)c1ccc(O)cc1 (stereo not drawn) | Mtb growth Cornell: 1.347%; Mtb heat-shock: -11%
* O=C1Nc2ccccc2CC12CCCN2Cc1ccccn1 (stereo not drawn) | Mtb heat-shock: -32.67%
* Cc1cc(NC(=O)NCCc2ccccc2)n(C)n1 | Mtb growth Cornell: 9.529%; Mtb heat-shock: -19.68%
* CCc1ncc(CN(CCc2ccccc2)Cc2cccs2)cn1.O=C(O)CC(O)(CC(=O)O)C(=O)O | Mtb growth Cornell: 4.886%; Mtb heat-shock: -6.847%
* c1cncc(-c2ccnn2CN2CCOCC2)c1 | Mtb heat-shock: -2.575%
* Cc1nn(C)c2cnn(Cc3ccc(C(=O)NCC4CCCO4)o3)c12 (stereo not drawn) | Mtb growth Cornell: 4.487%; Mtb heat-shock: 9.841%
* COC1CCCN(C(=O)NCCCF)C1 (stereo not drawn) | Mtb growth Cornell: -5.172%; Mtb heat-shock: -0.9%
* COc1ccc(NC2(C(=O)N3CCCn4cncc4C3)CCCC2)cc1 | Mtb heat-shock: -24.27%
* CCC[C@H]1CN(Cc2ccc(N(C)C)nc2)C[C@@H]1NC(=O)CO | Mtb growth Cornell: -8.11%; Mtb heat-shock: -15.82%
* Cc1nnc(C2CCN(C(=O)c3ccc4[nH]ccc4c3)CC2)s1 | Mtb growth Cornell: 21.26%; Mtb heat-shock: 3.653%
* COc1ccc(OC)c(CN2CCCCCC2c2cccs2)c1 (stereo not drawn) | Mtb growth Cornell: -17.53%; Mtb heat-shock: -1.369%
* O=C(CSCc1ccccn1)N(Cc1ccsc1)C1CC1 | Mtb growth Cornell: 34.4%; Mtb heat-shock: -29.97%
* C/N=C1/c2cc3cc(OC)ccc3n2CCN1Cc1ccccc1.Cl | Mtb growth Cornell: 57.78%; Mtb heat-shock: -17.35%
* CCCc1nn(C2CCCN(C(C)C)C2=O)c(=O)o1 (stereo not drawn) | Mtb growth Cornell: -27.09%; Mtb heat-shock: -3.812%
* Cc1ccc(CN(CCN(C)C)C(=O)Nc2cc(C(N)=O)ccc2C)s1 | Mtb growth Cornell: -3.011%; Mtb heat-shock: -27.82%
* O=C1N(Cc2cccc(F)c2F)CCCC1(O)CNC1CCCC1 (stereo not drawn) | Mtb growth Cornell: 24.57%; Mtb heat-shock: -3.095%
* CN(C)S(=O)(=O)N(C)C(c1cccc(F)c1)c1ccccn1 (stereo not drawn) | Mtb heat-shock: -0.2809%
* Cc1cc(C)n(CC2CCCCN2Cc2cscn2)n1 (stereo not drawn) | Mtb heat-shock: 9.337%
* CCc1nc(C2CCCN2CC(=O)Nc2nncs2)no1 (stereo not drawn) | Mtb growth Cornell: -17.64%; Mtb heat-shock: 4.141%
* COCCc1noc(CNC2CCCC(C)(C)C2)n1 (stereo not drawn) | Mtb growth Cornell: 25.7%; Mtb heat-shock: 37.11%
* CC(NCc1cnc(C2CCC2)s1)c1ccc(-n2cncn2)cc1 (stereo not drawn) | Mtb heat-shock: -27.81%
* O=C(NCc1csc(-c2cccs2)n1)C1NCCc2[nH]cnc21 (stereo not drawn) | Mtb growth Cornell: 9.057%; Mtb heat-shock: -37.82%
* Cc1nc(-c2ccncc2)ncc1C(C)NC(=O)C1=NN(C)C(=O)CC1 (stereo not drawn) | Mtb growth Cornell: -7.109%; Mtb heat-shock: -2.647%
* COC(=O)CNC(=O)c1nc(-c2ccccc2OC)c2cnccn12 | Mtb heat-shock: -24.66%
* [H][C@@]12CCN(c3ncccn3)C[C@]1(C(=O)NCc1ccccn1)CCO2 | Mtb growth Cornell: -9.233%; Mtb heat-shock: 92.45%
* CC(O)CN(Cc1cccc(C(N)=O)c1)c1ccccc1 (stereo not drawn) | Mtb heat-shock: -6.468%
* Cc1nccn1-c1ccc(=O)n(CCNC(=O)c2ccncc2)n1 | Mtb growth Cornell: 5.164%; Mtb heat-shock: 1.018%
* Cc1cccnc1NCCNC(=O)[C@H]1CNC[C@@H](C(=O)N2CCCC2)C1 | Mtb growth Cornell: 39.82%; Mtb heat-shock: 18.16%
* CS(=O)(=O)NCC1(O)CCCN(C(=O)CCn2cc(Cl)cn2)CC1 (stereo not drawn) | Mtb growth Cornell: -6.983%; Mtb heat-shock: 16.3%
* OC(CN(Cc1ccccc1)Cc1cccnc1)c1ccco1 (stereo not drawn) | Mtb heat-shock: -11.87%
* Cc1nc(C(C)C)sc1C(=O)N1CCN(C2CCSCC2)CC1 | Mtb growth Cornell: 0.2509%; Mtb heat-shock: -4.478%
* Cn1cnnc1C1CCCN(C(=O)c2cnc3ccccc3n2)C1 (stereo not drawn) | Mtb heat-shock: 11.13%
* O=C(O)C(F)(F)F.O=C(O)C(F)(F)F.[H][C@@]12CCN(Cc3ccncc3)C[C@@]1([H])O[C@@H](C(=O)NC)C2 | Mtb growth Cornell: 9.667%; Mtb heat-shock: -3.411%
* O=C(CCCc1ccccn1)Nc1cccc(N2CCCNC2=O)c1 | Mtb growth Cornell: 7.411%; Mtb heat-shock: 11.33%
* CCc1nccn1CCCNC(=O)CN1CCN(c2ncccn2)CC1 | Mtb growth Cornell: 30.58%; Mtb heat-shock: 2.713%
* COCC(C)(C#N)NC(=O)COc1ccccc1Br (stereo not drawn) | Mtb growth Cornell: -1.752%; Mtb heat-shock: 0.2499%

4 of the entries, repeated:

* O=C(CCCc1ccccn1)Nc1cccc(N2CCCNC2=O)c1 | Mtb growth Cornell: 7.411%; Mtb heat-shock: 11.33%
* O=C(CSCc1ccccn1)N(Cc1ccsc1)C1CC1 | Mtb growth Cornell: 34.4%; Mtb heat-shock: -29.97%
* CCC[C@H]1CN(Cc2ccc(N(C)C)nc2)C[C@@H]1NC(=O)CO | Mtb growth Cornell: -8.11%; Mtb heat-shock: -15.82%
* Cc1cccnc1NCCNC(=O)[C@H]1CNC[C@@H](C(=O)N2CCCC2)C1 | Mtb growth Cornell: 39.82%; Mtb heat-shock: 18.16%

Source: ChEMBL document CHEMBL3988442, “University of Dundee, Small-Polar-MMV Screening Library” (2021).